No constants are given. Whether binding was seen depends on the method and setting.

Drawing on patent US6949349, this text covers binding for two molecules.

This experiment deals with T1, IGFBP-1 (human, UniProt P08833 26-259).
T1 construct: Biotinylated in the ELISA assays; also called rhIGFBP-1
T1 sequence (looked up): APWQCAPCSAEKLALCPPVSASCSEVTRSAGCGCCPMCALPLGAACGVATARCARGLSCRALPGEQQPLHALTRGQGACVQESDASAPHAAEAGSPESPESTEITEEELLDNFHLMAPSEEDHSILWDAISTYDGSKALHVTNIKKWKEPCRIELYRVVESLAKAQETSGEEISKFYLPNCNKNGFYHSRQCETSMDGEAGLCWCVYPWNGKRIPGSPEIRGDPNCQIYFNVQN
The experiment is described as follows: ELISA competition, inhibition of IGFBP-1 binding to IGF-I.

Consider CRAGPLQWLCEK [bp1-17], for which the binding result is recorded as “no binding (tested: IC50 (mut)/IC50 (wt) >1000)”. The value for CRAGPLQWLCE [bp1-04] was “no binding (tested: IC50 (mut)/IC50 (wt) >1000)”.
